Results reported in US20210246886A1, “Fluorosulfones” (3M INNOVATIVE PROPERTIES COMPANY, priority 2018, published 2021).
Read-outs that look alike come from different tables or passages of the source.

Key:
[1] = Atmospheric lifetime from relative rate studies with hydroxyl radicals in a laboratory chamber
[2] = cited from earlier work
[3] = Global Warming Potential by IPCC AR5 method (radiative efficiency from FTIR combined with atmospheric lifetime); settings: with stratospheric temperature adjustment and lifetime correction

Row | Molecule | Atmospheric Lifetime [1] | also measured
1 | 1,1,1,2,2-pentafluoro-2-((trifluoromethyl)sulfonyl)ethane [Example 6] | 8.2 yr | –
2 | COC(F)(C(F)(F)C(F)(F)F)C(F)(C(F)(F)F)C(F)(F)F (stereo not drawn) [CE2] | 3.8 yr | –
3 | FC(F)(F)C(F)(F)C(F)(F)N(C(F)(F)C(F)(F)C(F)(F)F)C(F)(F)C(F)(F)C(F)(F)F [CE4] | 2,000 yr | –
4 | FC(F)(F)C(F)(F)C(F)(F)C(F)(F)C(F)(F)C(F)(F)F [CE9] | – | GWP ([2]; 100 yr ITH): 9000
5 | O=S(=O)(C(F)(F)C(F)(F)F)C(F)(F)C(F)(F)F [Example 3, Perfluorodiethylsulfone] | 10 yr | radiative efficiency [3]: 0.282 Wm^−2 ppbV^−1; Atmospheric Lifetime ([1]; relative rate vs chloromethane reference, reaction with hydroxyl radicals): 10 years
6 | O=S(=O)(C(F)(F)C(F)(F)F)C(F)(F)C(F)(F)C(F)(F)C(F)(F)F [Example 4, 1,1,1,2,2,3,3,4,4-nonafluoro-4-((perfluoroethyl)sulfonyl)butane] | 10 yr | –
7 | FS(F)(F)(F)(F)F [SF6, sulfur hexafluoride, reference compound] | – | GWP ([2]; times that of CO2 (100 year ITH)): 22,200
